Earlier results, collected in US6534088B2, “Fibrate-statin combinations with reduced fed-fasted effects” (SkyePharma Canada Inc., priority 2001, dated 2003).

Conditions: oral administration

CC(C)c1c(C(=O)Nc2ccccc2)c(-c2ccccc2)c(-c2ccc(F)cc2)n1CC[C@@H](O)C[C@@H](O)CC(=O)O [Atorvastatin]
effect of food on absorption: decreases the rate and extent of drug absorption
